Experiment [1] has as its target Activating Molecule in Beclin 1-Regulated Autophagy (AMBRA1) (human (endogenous in HeLa)) (UniProt Q9C0C7). Briefly: co-IP.
Experiment [2] addresses CDK4 (human (endogenous in HeLa, DAOY)) (UniProt P11802). Briefly: proximity ligation.

Chains of the proteins cited; added tags and fusions are not shown.
UniProt Q9C0C7: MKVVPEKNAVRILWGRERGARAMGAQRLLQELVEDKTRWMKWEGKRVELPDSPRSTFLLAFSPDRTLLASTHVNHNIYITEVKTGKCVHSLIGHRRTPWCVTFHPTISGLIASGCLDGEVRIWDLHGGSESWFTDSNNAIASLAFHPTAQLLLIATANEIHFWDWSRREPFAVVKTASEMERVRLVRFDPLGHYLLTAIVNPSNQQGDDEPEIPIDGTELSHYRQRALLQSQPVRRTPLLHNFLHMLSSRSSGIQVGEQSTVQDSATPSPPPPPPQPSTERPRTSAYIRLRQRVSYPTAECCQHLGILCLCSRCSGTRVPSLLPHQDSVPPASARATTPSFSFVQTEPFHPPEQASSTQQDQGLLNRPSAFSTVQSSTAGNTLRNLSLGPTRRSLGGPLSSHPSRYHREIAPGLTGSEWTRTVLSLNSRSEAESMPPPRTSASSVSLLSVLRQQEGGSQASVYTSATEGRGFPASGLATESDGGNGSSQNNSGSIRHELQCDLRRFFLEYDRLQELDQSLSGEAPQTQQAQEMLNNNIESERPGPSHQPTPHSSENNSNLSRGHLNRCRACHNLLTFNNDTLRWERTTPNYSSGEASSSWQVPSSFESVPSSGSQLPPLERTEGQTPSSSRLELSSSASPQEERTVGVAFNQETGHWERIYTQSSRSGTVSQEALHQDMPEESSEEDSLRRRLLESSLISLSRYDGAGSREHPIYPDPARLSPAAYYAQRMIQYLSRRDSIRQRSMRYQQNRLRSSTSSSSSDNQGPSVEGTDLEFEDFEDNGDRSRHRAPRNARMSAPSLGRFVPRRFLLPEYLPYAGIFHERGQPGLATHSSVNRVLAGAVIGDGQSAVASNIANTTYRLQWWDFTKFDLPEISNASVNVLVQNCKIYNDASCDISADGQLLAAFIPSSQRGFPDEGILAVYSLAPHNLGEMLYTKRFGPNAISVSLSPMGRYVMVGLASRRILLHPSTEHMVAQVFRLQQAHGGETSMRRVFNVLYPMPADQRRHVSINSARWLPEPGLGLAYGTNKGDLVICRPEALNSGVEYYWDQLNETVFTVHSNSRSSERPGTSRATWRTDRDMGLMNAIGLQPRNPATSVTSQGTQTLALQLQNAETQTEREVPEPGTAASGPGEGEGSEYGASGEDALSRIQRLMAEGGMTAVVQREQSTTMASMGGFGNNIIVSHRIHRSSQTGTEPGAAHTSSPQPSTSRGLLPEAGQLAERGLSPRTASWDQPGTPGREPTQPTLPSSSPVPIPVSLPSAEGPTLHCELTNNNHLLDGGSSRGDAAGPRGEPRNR
UniProt P11802: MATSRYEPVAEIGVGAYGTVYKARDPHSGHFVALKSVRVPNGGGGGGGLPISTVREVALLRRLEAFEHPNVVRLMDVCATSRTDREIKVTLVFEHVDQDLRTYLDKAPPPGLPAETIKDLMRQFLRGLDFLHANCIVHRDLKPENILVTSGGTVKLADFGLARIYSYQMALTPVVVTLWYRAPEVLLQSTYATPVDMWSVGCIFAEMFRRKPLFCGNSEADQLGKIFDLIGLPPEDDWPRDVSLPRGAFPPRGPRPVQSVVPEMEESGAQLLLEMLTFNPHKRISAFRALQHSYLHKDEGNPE
UniProt P38936: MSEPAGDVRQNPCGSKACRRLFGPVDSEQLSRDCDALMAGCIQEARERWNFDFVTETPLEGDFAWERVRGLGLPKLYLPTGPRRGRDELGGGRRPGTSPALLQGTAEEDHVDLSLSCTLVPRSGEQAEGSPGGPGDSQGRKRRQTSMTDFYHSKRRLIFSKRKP
UniProt P46527: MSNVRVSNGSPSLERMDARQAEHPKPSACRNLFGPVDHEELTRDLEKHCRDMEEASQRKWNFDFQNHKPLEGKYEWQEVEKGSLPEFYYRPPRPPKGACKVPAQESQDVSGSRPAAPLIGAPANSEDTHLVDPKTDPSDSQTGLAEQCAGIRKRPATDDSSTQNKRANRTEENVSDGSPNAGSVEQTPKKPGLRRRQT

No constants are given. Whether binding was seen depends on the method and setting. In cells and extracts the contact can be indirect. Some results given as binding are weak or reduced against the parent protein; the word gives no strength.

Regarding “p21^Waf1/Cip1 (from UniProt P38936 1-164)”, the binding entry in experiment [1] is reported as “binds”.

On to p27^Kip1 (from UniProt P46527 1-198), for which the binding entry in experiment [2] is “binds”.

Turning to “p27^Kip1 (from UniProt P46527 1-198) (other; other documents disagree on this pair)”, the binding result in experiment [1] is given as “binds”.

For the origin of these results see doi:10.1101/2025.07.28.666126.
